According to patent US20240309076A1:
These are yes or no findings as the source states them, for the method shown. Some entries that bind do so weakly or less than the wild type.

The chains behind the UniProt entries cited, without tags or fusion partners. Where a name states a change or a piece, a line headed by the entry shows the natural chain unless it says otherwise. A line that says so, or that is headed by a name, gives the form on record, which may keep a tag or linker.
Tau and AD-associated Tau in brain tissue and brain extracts of patients with tauopathy (AD, PSP, PiD) (P10636, form named): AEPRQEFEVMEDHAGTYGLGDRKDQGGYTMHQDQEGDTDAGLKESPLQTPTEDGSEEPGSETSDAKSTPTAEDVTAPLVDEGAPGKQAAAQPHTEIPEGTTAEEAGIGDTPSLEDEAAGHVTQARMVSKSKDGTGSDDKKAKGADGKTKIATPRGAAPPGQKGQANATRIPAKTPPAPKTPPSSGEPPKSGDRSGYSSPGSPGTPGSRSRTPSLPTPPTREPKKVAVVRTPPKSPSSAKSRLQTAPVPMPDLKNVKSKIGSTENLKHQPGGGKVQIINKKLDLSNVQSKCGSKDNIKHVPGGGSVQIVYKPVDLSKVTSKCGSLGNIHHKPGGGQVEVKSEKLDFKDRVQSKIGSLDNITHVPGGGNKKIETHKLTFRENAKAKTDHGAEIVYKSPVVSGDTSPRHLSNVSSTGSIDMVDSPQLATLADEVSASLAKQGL

Assays:
[1] = target: Tau and AD-associated Tau in brain tissue and brain extracts of patients with tauopathy (AD, PSP, PiD) (human) (UniProt P10636); test: immunoprecipitation from human AD brain extracts
[2] = target: Tau and AD-associated Tau in brain tissue and brain extracts of patients with tauopathy (AD, PSP, PiD) (human) (UniProt P10636); test: IHC on human AD brain tissue
[3] = target: Tau and AD-associated Tau in brain tissue and brain extracts of patients with tauopathy (AD, PSP, PiD) (human) (UniProt P10636); test: IHC on patient brain tissue (AD, PSP, PiD)

Measured: binding

B1: NI-502.4P3 (antibody, V domains shown)
VH: EVQLVQSGAEVKKPGESLKISCKVSGYDFSKYWIGWVRQMPGKGLEWMGLIYPGDSDTRYSPSLEGQVSISADKSISAAYLQFSSLKASDSAMYYCVRKGYSAYLGGWFDPWGQGTLVTVSS
VL: DIQLTQSPDSLAASLGERVTINCRSSQNIFYNSNNKNFLAWYQQKAGQSPKLLIYWASTRESGVPDRFSGSGSGTDFTLTISGLQAGDVAVYFCQQYFTDAPTFGGGTKVEIK
binds: all assays above
